Test results reported in the supplement of paper PMC7580552.
Structures can show the parent of a compound that is named as a salt. The list shows a part of the results. Plates or batches differ in their baseline, so values are only roughly comparable.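 A K-12 lab model strain is cultured statically in 96-well plates; biofilm is measured as the absorbance of crystal violet stain retained in the wells. Drugs counted as candidate specific biofilm blockers if they strongly reduced staining while slowing planktonic growth by under 70%.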

These compounds were tested on Escherichia coli W3110 (assay: biofilm formation (crystal violet staining) relative to untreated control; higher = more biofilm). Settings: 10 µM; 20-24 h; 30 °C; TB.
For `C[C@@H]1CCC[C@H](C)N1NC(=O)c1ccc(Cl)c(S(N)(=O)=O)c1` [Clopamide], the biofilm formation was 59%. Compound `CC[C@H]1OC(=O)[C@H](C)[C@@H](O[C@H]2C[C@@](C)(OC)[C@@H](O)[C@H](C)O2)[C@H](C)[C@@H](O[C@@H]2O[C@H](C)C[C@H](N(C)C)[C@H]2O)[C@](C)(O)C[C@@H](C)CN(C)[C@H](C)[C@@H](O)[C@]1(C)O` [Azithromycin] has a biofilm formation of 34%. In the case of `CN[C@H]1CC[C@@H](c2ccc(Cl)c(Cl)c2)c2ccccc21` [Sertraline], the biofilm formation is reported as 62%. `CC(=O)Nc1c(I)c(C(=O)N[C@H]2C(O)O[C@H](CO)[C@@H](O)[C@@H]2O)c(I)c(N(C)C(C)=O)c1I` (stereo not given in full) [Metrizamide] showed a biofilm formation of 102%. `CCN(CC)CCNC(=O)c1ccc(N)cc1` [Procainamide hydrochloride] gave a biofilm formation of 64%. `CNCC(O)c1ccc(O)c(O)c1` (stereo not given) [Racepinephrine hydrochloride] showed a biofilm formation of 84%. `CCOC1O[C@H]([C@@H](COCc2ccccc2)OCc2ccccc2)[C@H](OCc2ccccc2)[C@H]1O` (stereo not given in full) [Tribenoside] gave a biofilm formation of 76%. `Cn1c(=O)c2c(ncn2CC2OCCO2)n(C)c1=O` [Doxofylline] was tested, and the biofilm formation was 80%. Compound `CN1CCN(CC(=O)N2c3ccccc3C(=O)Nc3cccnc32)CC1` [Pirenzepine dihydrochloride] has a biofilm formation of 59%. `CC(=O)N(CC(O)CO)c1c(I)c(C(=O)NCC(O)CO)c(I)c(C(=O)NCC(O)CO)c1I` (stereo not given) [Iohexol] gave a biofilm formation of 86%. `CN(CCCCCCCCCCN(C)C(=O)Oc1cccc([N+](C)(C)C)c1)C(=O)Oc1cccc([N+](C)(C)C)c1` [Demecarium bromide] gave a biofilm formation of 74%. Work on `COC(=O)Nc1nc2cc(Sc3ccccc3)ccc2[nH]1` [Fenbendazole] yielded a biofilm formation of 87%. `CN(C)CCC(c1ccc(Br)cc1)c1ccccn1` (stereo not given) [Brompheniramine maleate] showed a biofilm formation of 83%. In the case of `O=C1CC[C@@H](C(=O)N2CSC[C@H]2C(=O)O)N1` [Pidotimod], the biofilm formation is reported as 66%. In the case of `c1ccc(-c2ccc(C(c3ccccc3)n3ccnc3)cc2)cc1` (stereo not given) [Bifonazole], the biofilm formation is reported as 88%. For `Oc1c(Cl)cc(Cl)c2cccnc12` [Chloroxine], the biofilm formation was 2%. `CC(=O)OC[C@H]1O[C@@H]([S-])[C@H](OC(C)=O)[C@@H](OC(C)=O)[C@@H]1OC(C)=O.CCP(CC)CC.[Au+]` [Auranofin] was tested, and the biofilm formation was 116%. Work on `CCCCc1oc2ccc(NS(C)(=O)=O)cc2c1C(=O)c1ccc(OCCCN(CCCC)CCCC)cc1` [Dronedarone hydrochloride] yielded a biofilm formation of 79%. `CCC1(c2ccccc2)C(=O)NCNC1=O` [Primidone] gave a biofilm formation of 62%. `Nc1ncnc2c1ncn2[C@@H]1O[C@H](CO)[C@@H](O)[C@@H]1O` [Vidarabine] showed a biofilm formation of 62%.
